Laboratory results: patent US20140303228A1, “Biomarkers for Amyotrophic Lateral Sclerosis and Methods Using the Same” (METABOLON, INC., priority 2011, published 2014)

Sequences of proteins named here, by UniProt entry; tags and fusion partners are left off. A change or cut given only in a name is not applied to a line headed by its entry.
UniProt P01042: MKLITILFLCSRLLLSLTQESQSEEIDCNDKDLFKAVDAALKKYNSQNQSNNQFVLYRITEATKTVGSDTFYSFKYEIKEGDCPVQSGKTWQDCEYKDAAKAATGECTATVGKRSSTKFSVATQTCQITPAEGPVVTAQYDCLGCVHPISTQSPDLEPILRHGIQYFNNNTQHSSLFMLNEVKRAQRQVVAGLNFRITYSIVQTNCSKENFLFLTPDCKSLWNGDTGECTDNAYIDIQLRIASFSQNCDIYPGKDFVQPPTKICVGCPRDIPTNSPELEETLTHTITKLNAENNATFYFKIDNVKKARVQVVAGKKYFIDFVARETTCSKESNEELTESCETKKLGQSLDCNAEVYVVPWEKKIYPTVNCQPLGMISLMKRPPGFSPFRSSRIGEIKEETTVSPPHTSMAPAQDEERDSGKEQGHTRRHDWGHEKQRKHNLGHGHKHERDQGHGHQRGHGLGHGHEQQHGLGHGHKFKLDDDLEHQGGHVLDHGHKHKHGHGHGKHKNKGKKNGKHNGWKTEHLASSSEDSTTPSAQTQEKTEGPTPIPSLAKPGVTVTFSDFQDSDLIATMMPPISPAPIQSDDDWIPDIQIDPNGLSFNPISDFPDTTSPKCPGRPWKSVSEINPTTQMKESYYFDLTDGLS

Key:
Parameters in all cases: species or system human
[1] = Metabolomic profiling of blood plasma samples, ALS vs. symptom mimic disease subjects (Tables 5, 9); settings: for % Change in ALS: blood plasma, ALS mean (172 subjects) vs symptom mimic disease mean (73 subjects), positive = increase in ALS, T-test; for Direction of change in ALS: plasma, ALS patients relative to symptom mimic disease patients, Random Forest and/or Wilcoxon (FDR < 0.15)
[2] = Plasma metabolite levels of ALS subjects over time, month 1 vs. month 12 (Table 15); settings: month 1 vs month 12 after screening, 37 patients, matched-pairs T-test, positive = increase as disease progressed
[3] = Metabolomic profiling of blood plasma samples, MND vs. symptom mimic disease subjects (Table 13); settings: 200 MND subjects vs 73 symptom mimic disease patients, Wilcoxon FDR < 0.15

Compound: O=C(O)[C@@H]1C[C@@H](O)CN1 (relative stereo) [trans-4-hydroxyproline]
- % Change in ALS [1]: −14%
- % Change with disease progression [2]: 1%

Compound: CCC(N)C(=O)O (stereo not shown) [2-aminobutyrate]
- % Change in ALS [1]: 6%
- % Change with disease progression [2]: −2%

Compound: CC[C@H](O)C(=O)O [2-hydroxybutyrate (AHB), 2-hydroxybutyrate]
- % Change in ALS [1]: 19%
- Direction of change in ALS [1]: Higher
- Direction of change in MND [3]: Higher

Compound: CCCc1oc(CCC(=O)O)c(C(=O)O)c1C [3-carboxy-4-methyl-5-propyl-2-furanpropanoate]
- % Change in ALS [1]: −95%
- % Change with disease progression [2]: 43%

Compound: C[N+](C)(C)CC(=O)CC(=O)[O-] [3-dehydrocarnitine]
- % Change in ALS [1]: −22%
- Direction of change in ALS [1]: Lower
- Direction of change in MND [3]: Lower

Compound: O=S(=O)(O)Oc1c[nH]c2ccccc12 [3-indoxyl sulfate]
- % Change in ALS [1]: −14%
- % Change with disease progression [2]: −11%

Compound: Cn1c(=O)[nH]c(=O)c2[nH]cnc21 [3-methylxanthine]
- % Change in ALS [1]: −58%
- Direction of change in ALS [1]: Lower
- Direction of change in MND [3]: Lower

Compound: C=CCCCCCCCCC(=O)O [10-undecenoate (11:1n1), 10-undecenoate]
- % Change in ALS [1]: 16%
- Direction of change in ALS [1]: Higher
- Direction of change in MND [3]: Higher

Compound: CC(=O)OP(=O)(O)O [acetyl phosphate]
- % Change with disease progression [2]: −1%

Compound: CC(C)C(O)C(=O)O (stereo not drawn) [alpha-hydroxyisovalerate]
- % Change with disease progression [2]: −13%

Compound: NC(=O)C[C@H](N)C(=O)O [asparagine]
- % Change in ALS [1]: −8%
- % Change with disease progression [2]: 8%

Compound: CCCCCCCC(=O)O [caprylate (8:0), caprylate]
- % Change in ALS [1]: 47%
- % Change with disease progression [2]: 2%

Compound: C[C@]12CCC(=O)C=C1CC[C@@H]1[C@@H]2C(=O)C[C@@]2(C)[C@H]1CC[C@]2(O)C(=O)CO [cortisone]
- % Change in ALS [1]: 14%
- Direction of change in ALS [1]: Higher
- Direction of change in MND [3]: Higher

Compound: CN(CC(=O)O)C(=N)N [creatine]
- % Change in ALS [1]: 22%
- Direction of change in ALS [1]: Higher
- Direction of change in MND [3]: Higher

Compound: N[C@@H](CS)C(=O)O [cysteine]
- % Change in ALS [1]: −10%
- Direction of change in ALS [1]: Lower
- % Change with disease progression [2]: −14%

Compound: O=C(O)[C@H](O)[C@H](O)CO [erythronate]
- % Change in ALS [1]: −17%
- % Change with disease progression [2]: −15%

Compound: N[C@@H](CCC(=O)N[C@@H](Cc1ccccc1)C(=O)O)C(=O)O [gamma-glutamylphenylalanine]
- % Change with disease progression [2]: −22%

Compound: N[C@@H](CCC(=O)O)C(=O)O [glutamate]
- % Change with disease progression [2]: −19%

Compound: CC(C)[C@H](NC(=O)[C@@H](N)CCC(=O)O)C(=O)O [glutamyl-valine] (H-Glu-Val-OH)
- % Change with disease progression [2]: −17%

Compound: O=C(O)CCCCCCCCCCCCCCC(=O)O [hexadecanedioate]
- % Change in ALS [1]: 27%
- Direction of change in ALS [1]: Higher
- Direction of change in MND [3]: Higher

Compound: O=C(O)CNCC(=O)O [iminodiacetate (IDA), iminodiacetate]
- % Change in ALS [1]: 16%
- Direction of change in ALS [1]: Higher
- Direction of change in MND [3]: Higher

Compound: O=C(O)CCc1c[nH]c2ccccc12 [indolepropionate]
- % Change in ALS [1]: −15%
- % Change with disease progression [2]: −21%

Compound: O=C(O)CCCCCCCCCCCCCCCCC(=O)O [octadecanedioate]
- % Change in ALS [1]: 25%
- Direction of change in ALS [1]: Higher
- Direction of change in MND [3]: Higher

Compound: Cc1ccc(OS(=O)(=O)O)cc1 [p-cresol sulfate]
- % Change in ALS [1]: −26%
- % Change with disease progression [2]: 2%

Compound: CCCCCCCCCCCCC/C=C/[C@@H](O)[C@H](COP(=O)([O-])OCC[N+](C)(C)C)NC(=O)CCCCCCCCCCCCCCC [palmitoyl sphingomyelin]
- % Change in ALS [1]: 11%
- Direction of change in ALS [1]: Higher
- Direction of change in MND [3]: Higher
- % Change with disease progression [2]: −3%

Compound: CC(C)CC(NC(=O)C1CCCN1)C(=O)O (stereo not drawn) [pro-leu] (H-Pro-Leu-OH; configuration not given here)
- % Change with disease progression [2]: −20%

Compound: O=C(O)[C@@H]1CCCN1 [proline]
- % Change in ALS [1]: −10.00%
- Direction of change in ALS [1]: Lower
- % Change with disease progression [2]: −14%

Compound: O=c1[nH]cc([C@@H]2O[C@H](CO)[C@@H](O)[C@H]2O)c(=O)[nH]1 [pseudouridine]
- % Change with disease progression [2]: 4% and −1%

Compound: CCCCCCCCCCCCCCCCCC(N)=O [stearamide]
- % Change with disease progression [2]: −15%

Compound: CCCCCCCCCCCCC/C=C/[C@@H](O)[C@H](COP(=O)([O-])OCC[N+](C)(C)C)NC(=O)CCCCCCCCCCCCCCCCC [stearoyl sphingomyelin]
- % Change in ALS [1]: 10%
- % Change with disease progression [2]: −3%

Compound: CCC1=C(C)C(Cc2[nH]c(Cc3[nH]c(CC4NC(=O)C(C)=C4CC)c(C)c3CCC(=O)O)c(CCC(=O)O)c2C)NC1=O (stereo not shown) [urobilinogen]
- % Change in ALS [1]: −25%

Compound: OC[C@@H](O)[C@H](O)[C@@H](O)CO [xylitol]
- % Change in ALS [1]: −14%

Compound: O=C(O)[C@H](O)[C@@H](O)[C@H](O)CO [xylonate]
- % Change in ALS [1]: 14%

Compound: O=C[C@H](O)[C@@H](O)[C@H](O)CO [xylose]
- % Change in ALS [1]: −17%

Compound: DSGEGDFXAEGGGVR (SEQ ID NO: 4): peptide biomarker measured in plasma, SEQ ID NO: 4
- % Change in ALS [1]: 33%

Compound: HWESASXX (SEQ ID NO: 1): peptide biomarker measured in plasma, SEQ ID NO: 1
- % Change in ALS [1]: 22%

Compound: XHWESASXXR (SEQ ID NO: 7): peptide biomarker measured in plasma, SEQ ID NO: 7
- % Change in ALS [1]: 138%

Compound: [H]HWESASLLR[OH] (SEQ ID NO: 6): peptide biomarker measured in plasma, SEQ ID NO: 6 (free N-terminus, C-terminal acid; listed as Homo sapiens)
- % Change in ALS [1]: 233%

Compound: andro steroid monosulfate [andro steroid monosulfate 2]
- % Change in ALS [1]: 11%

Compound: bradykinin, des-arg(9) (RPPGFSPF; Bradykinin; UniProt P01042 381-388, looked up, fragment)
- % Change in ALS [1]: 150%

Compound: bradykinin, hydroxy-pro(3)
- % Change in ALS [1]: 117%

Compound: deoxycholate
- % Change in ALS [1]: 8%

Compound: dihomo-linolenate [dihomo-linolenate (20:3n3 or n6)]
- % Change in ALS [1]: 14%

Compound: docosapentaenoate [docosapentaenoate (n3 DPA; 22:5n3)]
- % Change in ALS [1]: 19%

Compound: docosapentaenoate [docosapentaenoate (n6 DPA; 22:5n6)]
- % Change in ALS [1]: 11%

Compound: eicosenoate [eicosenoate (20:1n9 or 11)]
- % Change in ALS [1]: 28%

Compound: glutaroyl carnitine
- % Change in ALS [1]: −8%

Compound: glycocholenate sulfate
- % Change in ALS [1]: 20%

Compound: hydroxyisovaleroyl carnitine
- % Change in ALS [1]: −12%

Compound: linolenate
- % Change in ALS [1]: 14%

Compound: methylglutaroylcarnitine
- % Change in ALS [1]: −6%

Compound: phosphate
- % Change in ALS [1]: 11%
- Direction of change in ALS [1]: Higher

Compound: pregn steroid monosulfate
- % Change in ALS [1]: 10%

Compound: pregnen-diol disulfate
- % Change in ALS [1]: 27%

Compound: pyroglutamine
- % Change in ALS [1]: −25%
- Direction of change in ALS [1]: Lower

Compound: tartarate
- % Change in ALS [1]: 25%

Compound: taurocholenate sulfate
- % Change in ALS [1]: 15%

Where “and” joins values, the source holds several entries; their conditions need not be identical. Equal entries are not always repeated. Structures can show the parent of a compound that is named as a salt. Where a SMILES comes first, the peptide text is derived from it.
